The target in this experiment is human mtSOD1-L126delTT with a FLAG sequence at the C terminus (human) (UniProt P00441). In words: affinity purification with mass spectrometry; anti-FLAG M2 IP (5 ug antibody, protein A/G magnetic beads) from the nuclear fraction of DF7 cells (500 ug total protein); control IP with monoclonal mouse IgG (MOPC 21); DIA proteomics; hits: log2 FC >= 2 over control or missing in the control IP.

Protein sequences, listed by entry. Tags and fused reporters are not part of them. Lines headed by an entry give the natural chain unless they say otherwise; changes in a name come on top.
UniProt P00441: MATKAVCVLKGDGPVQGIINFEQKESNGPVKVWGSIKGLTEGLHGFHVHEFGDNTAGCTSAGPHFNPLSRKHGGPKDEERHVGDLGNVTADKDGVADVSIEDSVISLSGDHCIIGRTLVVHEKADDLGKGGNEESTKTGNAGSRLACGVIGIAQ

No constants are given. Whether binding was seen depends on the method and setting. In cells and extracts the contact can be indirect. These calls come from enrichment with a bait or labelling near it, and not all partners need be listed.

B1: Dhx36 (protein, UniProt Q8VHK9 1-1001)
chain: MSYDYHQSWSRDGGPRGSGQGSSGGGGGGSRGSGGGGGGRGGRGRHPAHLKGREIGLWYAKKQTQKNKEAERQERAVVHMDERREEQIVQLLNSVQAKTDKDSEAQISWFAPEDHGYGTEVSSEKKINSEKKLDNQEKKLLNQEKKTFRITDKSYIDRDSEYLLQENEPNLSLDQHLLEDLQRKKTDPRYIEMQRFRKKLPSYGMQKELVNLINNHQVTVISGETGCGKTTQVTQFILDNYIERGKGSACRIVCTQPRRISAISVAERVATERAESCGNGNSTGYQIRLQSRLPRKQGSILYCTTGIILQWLQSDSRLSSVSHIVLDEIHERNLQSDVLMTVIKDLLHFRSDLKVILMSATLNAEKFSEYFGNCPMIHIPGFTFPVVEYLLEDIIEKIRYVPDQKEHRSQFKRGFMQGHVNRQEKEEKEAIYKERWPAYIKELRTRYSASTVDVLQMMDDDKVDLNLIAALIRYIVLEEEDGAILVFLPGWDNISTLHDLLMSQVMFKSDKFLIIPLHSLMPTVNQTQVFKKTPPGVRKIVIATNIAETSITIDDVVYVIDGGKIKETHFDTQNNISTMSAEWVSKANAKQRKGRAGRVQPGHCYHLYNGLRASLLDDYQLPEILRTPLEELCLQIKILRLGGIAYFLSRLMDPPSNEAVVLSIKHLMELSALDKQEELTPLGVHLARLPVEPHIGKMILFGALFCCLDPVLTIAASLSFKDPFVIPLGKEKIADARRKELAKETRSDHLTVVNAFEGWEEAKRRGFRYEKDYCWEYFLSSNTLQMLHNMKGQFAEHLLGAGFVSSRSPKDPKANINSDNEKIIKAVICAGLYPKVAKIRLNLGKKRKMVKVHTKSDGLVSIHPKSVNVEQTDFHYNWLIYHLKMRTSSIYLYDCTEVSPYCLLFFGGDISIQKDKDQEIIAVDEWIVFQSPERIAHLVKGLRKELDSLLQEKIESPHPVDWDDTKSRDCAVLSAILDLIKTQEKATPRNLPPRSQDGYYS
On to B1, for which the binding result is given as “binds”.

B2: Gnl3 (protein, UniProt Q8CI11 1-538)
chain: MKRPKLKKASKRMTCHKRYKIQKKVREHHRKLRKEAKKRGHKKPRKDPGVPNSAPFKEALLREAELRKQQLEELKQQQKLDRQKEQERKRKLEVSPGDEQSNVETREESDEPKRKKAKAGKQNPKKLHCQELKKVIEASDIVLEVLDARDPLGCRCPQIEEAVIQSGSKKLILVLNKSDLVPKENLENWLNYLNKELPTVVFKASTNLKNRKTFKIKKKKVVPFQSKICCGKEALWKLLGDFQQSCGKDIQVGVIGFPNVGKSSVINSLKQEWICNVGISMGLTRSMQIVPLDKQITIIDSPCLIISPCNSPTALALRSPASIEELRPLEAASAILSQADNEQVVLKYTVPEYKDSLHFFTKLAQRRGLHQKGGSPNVESAAKLVWSEWTGASLGYYCHPPASWNHSLHFNENIAAVMKKGFNLEELEKNNAHSIQVLKGPHLTNRILFRSSGLTNGILDEKDIVEESPRQTEDKQDADDQENGSGERNAEISDVAPVEETRELSPEQSTAGKPSDGSSALDRASQEDETYDFTTDYI
In the case of B2, the binding entry was “binds”.

B3: Hnrnpr (protein, UniProt Q8VHM5 1-632)
chain: MANQVNGNAVQLKEEEEPMDTSSVTHTEHYKTLIEAGLPQKVAERLDEIFQTGLVAYVDLDERAIDALREFNEEGALSVLQQFKESDLSHVQNKSAFLCGVMKTYRQREKQGSKVQESTKGPDEAKIKALLERTGYTLDVTTGQRKYGGPPPDSVYSGVQPGIGTEVFVGKIPRDLYEDELVPLFEKAGPIWDLRLMMDPLSGQNRGYAFITFCGKEAAQEAVKLCDSYEIRPGKHLGVCISVANNRLFVGSIPKNKTKENILEEFSKVTEGLVDVILYHQPDDKKKNRGFCFLEYEDHKSAAQARRRLMSGKVKVWGNVVTVEWADPVEEPDPEVMAKVKVLFVRNLATTVTEEILEKSFSEFGKLERVKKLKDYAFVHFEDRGAAVKAMDEMNGKEIEGEEIEIVLAKPPDKKRKERQAARQASRSTAYEDYYYHPPPRMPPPMRGRGRGGRGGYGYPPDYYGYEDYYDDYYGYDYHDYRGGYEDPYYGYDDGYAVRGRGGGRGGRGAPPPPRGRGAPPPRGRAGYSQRGAPLGPPRGSRGGRGGPAQQQRGRGSRGARGNRGGNVGGKRKADGYNQPDSKRRQTNNQQNWGSQPIAQQPLQQGGDYSGNYGYNNDNQEFYQDTYGQQWK
As for B3, the binding entry was “binds”.

B4: Adenosine 3'-phospho 5'-phosphosulfate transporter 1 (protein, UniProt Q91ZN5 1-431)
chain: MDARWWAVVVLATLPSLGAGGESPEAPPQSWTQLWLFRFLLNVAGYASFMVPGYLLVQYLRRKNYLETGRGLCFPLVKACVFGNEPKAPDEVLLAPRTETAESTPSWQVLKLVFCASGLQVSYLTWGILQERVMTGSYGATATSPGEHFTDSQFLVLMNRVLALVVAGLYCVLRKQPRHGAPMYRYSFASLSNVLSSWCQYEALKFVSFPTQVLAKASKVIPVMMMGKLVSRRSYEHWEYLTAGLISIGVSMFLLSSGPEPRSSPATTLSGLVLLAGYIAFDSFTSNWQDALFAYKMSSVQMMFGVNLFSCLFTVGSLLEQGALLEGARFMGRHSEFALHALLLSICSAFGQLFIFYTIGQFGAAVFTIIMTLRQAIAILLSCLLYGHTVTVVGGLGVAVVFTALLLRVYARGRKQRGKKAVPTEPPVQKV
Regarding B4, the binding result was “binds”.

B5: Ilf3 (protein, UniProt Q9Z1X4 1-898)
chain: MRPMRIFVNDDRHVMAKHSSVYPTQEELEAVQNMVSHTERALKAVSDWIDEQEKGNSELSEAENMDTPPDDESKEGAGEQKAEHMTRTLRGVMRVGLVAKGLLLKGDLDLELVLLCKEKPTTALLDKVADNLAIQLTTVTEDKYEILQSVDDAAIVIKNTKEPPLSLTIHLTSPVVREEMEKVLAGETLSVNDPPDVLDRQKCLAALASLRHAKWFQARANGLKSCVIVIRVLRDLCTRVPTWGPLRGWPLELLCEKSIGTANRPMGAGEALRRVLECLASGIVMPDGSGIYDPCEKEATDAIGHLDRQQREDITQSAQHALRLAAFGQLHKVLGMDPLPSKMPKKPKNENPVDYTVQIPPSTTYAITPMKRPMEEDGEEKSPSKKKKKIQKKEEKADPPQAMNALMRLNQLKPGLQYKLISQTGPVHAPIFTMSVEVDGSNFEASGPSKKTAKLHVAVKVLQDMGLPTGAEGRDSSKGEDSAEESDGKPAIVAPPPVVEAVSNPSSVFPSDATTEQGPILTKHGKNPVMELNEKRRGLKYELISETGGSHDKRFVMEVEVDGQKFQGAGSNKKVAKAYAALAALEKLFPDTPLALEANKKKRTPVPVRGGPKFAAKPHNPGFGMGGPMHNEVPPPPNIRGRGRGGNIRGRGRGRGFGGANHGGGYMNAGAGYGSYGYSSNSATAGYSQFYSNGGHSGNAGGGGSGGGGGSSSYSSYYQGDSYNSPVPPKHAGKKPLHGGQQKASYSSGYQSHQGQQQPYNQSQYSSYGTPQGKQKGYGHGQGSYSSYSNSYNSPGGGGGSDYSYDSKFNYSGSGGRSGGNSYGSSGSSSYNTGSHGGYGTGSGGSSSYQGKQGGYSSQSNYSSPGSSQSYSGPASSYQSSQGGYSRNTEHSMNYQYR
Take B5: the binding entry is “binds”.

The record behind these values is publication PMC12017883.
